Earlier results on 1 molecule are cited in patent US7563613B2, “Detoxification and decontamination using nanotechnology therapy” (University of Florida, priority 2001, dated 2009).

The structures appear in SMILES notation.

The conditions of data set [1]: in vivo; cited from earlier work.
For data set [2] the following is noted: at toxic plasma concentration; cited from earlier work.

Regarding `CCCCc1oc2ccccc2c1C(=O)c1cc(I)c(OCCN(CC)CC)c(I)c1` [amiodarone], the “plasma concentration that begins to cause cardiac toxicity” value in data set [1] is given as “approximately 3,500 ng/ml”. Also, the bound in plasma in data set [2] is 99.98±0.01%.
